Article PMC10822669
Results are given in words; binding and its absence hold for the method and conditions named. In cells and extracts the contact can be indirect. Some entries that bind do so weakly or less than the wild type.

Chains of the proteins cited; added tags and fusions are not shown.
UniProt P46935: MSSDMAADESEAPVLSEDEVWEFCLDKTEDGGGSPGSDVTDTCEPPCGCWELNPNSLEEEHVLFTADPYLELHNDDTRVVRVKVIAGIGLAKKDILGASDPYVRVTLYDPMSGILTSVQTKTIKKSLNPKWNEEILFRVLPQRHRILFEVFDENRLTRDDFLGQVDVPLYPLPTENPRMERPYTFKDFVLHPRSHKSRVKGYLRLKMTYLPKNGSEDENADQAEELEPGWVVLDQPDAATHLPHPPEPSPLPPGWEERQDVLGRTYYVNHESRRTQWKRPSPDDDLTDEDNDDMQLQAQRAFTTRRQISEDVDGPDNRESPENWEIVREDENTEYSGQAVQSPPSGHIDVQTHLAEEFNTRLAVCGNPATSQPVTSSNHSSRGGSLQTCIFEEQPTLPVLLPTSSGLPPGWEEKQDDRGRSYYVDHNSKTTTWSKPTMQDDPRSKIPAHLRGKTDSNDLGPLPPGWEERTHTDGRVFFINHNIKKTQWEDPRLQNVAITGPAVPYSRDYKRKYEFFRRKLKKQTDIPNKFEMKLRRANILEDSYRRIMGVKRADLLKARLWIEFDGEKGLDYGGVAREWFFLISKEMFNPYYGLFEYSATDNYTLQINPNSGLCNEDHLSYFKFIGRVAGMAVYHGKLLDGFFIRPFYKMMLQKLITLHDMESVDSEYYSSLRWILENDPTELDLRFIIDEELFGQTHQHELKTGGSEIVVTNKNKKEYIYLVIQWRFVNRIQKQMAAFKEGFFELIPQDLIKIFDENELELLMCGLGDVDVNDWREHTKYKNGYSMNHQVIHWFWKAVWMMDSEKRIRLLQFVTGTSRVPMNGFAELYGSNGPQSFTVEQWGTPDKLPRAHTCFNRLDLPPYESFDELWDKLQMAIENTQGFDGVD
UniProt Q9WTV6: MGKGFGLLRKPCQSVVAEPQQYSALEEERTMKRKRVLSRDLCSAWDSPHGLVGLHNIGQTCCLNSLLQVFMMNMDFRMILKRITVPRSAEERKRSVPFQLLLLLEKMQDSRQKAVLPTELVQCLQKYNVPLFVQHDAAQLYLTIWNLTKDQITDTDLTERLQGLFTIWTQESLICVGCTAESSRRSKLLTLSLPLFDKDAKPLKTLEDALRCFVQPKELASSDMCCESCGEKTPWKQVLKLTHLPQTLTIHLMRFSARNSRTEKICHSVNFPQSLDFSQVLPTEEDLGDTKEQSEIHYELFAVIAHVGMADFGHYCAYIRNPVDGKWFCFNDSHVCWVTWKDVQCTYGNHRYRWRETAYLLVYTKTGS

Tests used:
[1] = biological target: T1, colony stimulating factor 1 receptor (CSF1R), exogenously expressed in HEK293T cells (not stated (human or mouse cDNA cloned)) (UniProt P09581); experiment: co-IP; HEK293T cells transfected for 24 h with CSF1R and NEDD4 in the presence of increasing USP18; co-IP followed by western blot
T1 sequence: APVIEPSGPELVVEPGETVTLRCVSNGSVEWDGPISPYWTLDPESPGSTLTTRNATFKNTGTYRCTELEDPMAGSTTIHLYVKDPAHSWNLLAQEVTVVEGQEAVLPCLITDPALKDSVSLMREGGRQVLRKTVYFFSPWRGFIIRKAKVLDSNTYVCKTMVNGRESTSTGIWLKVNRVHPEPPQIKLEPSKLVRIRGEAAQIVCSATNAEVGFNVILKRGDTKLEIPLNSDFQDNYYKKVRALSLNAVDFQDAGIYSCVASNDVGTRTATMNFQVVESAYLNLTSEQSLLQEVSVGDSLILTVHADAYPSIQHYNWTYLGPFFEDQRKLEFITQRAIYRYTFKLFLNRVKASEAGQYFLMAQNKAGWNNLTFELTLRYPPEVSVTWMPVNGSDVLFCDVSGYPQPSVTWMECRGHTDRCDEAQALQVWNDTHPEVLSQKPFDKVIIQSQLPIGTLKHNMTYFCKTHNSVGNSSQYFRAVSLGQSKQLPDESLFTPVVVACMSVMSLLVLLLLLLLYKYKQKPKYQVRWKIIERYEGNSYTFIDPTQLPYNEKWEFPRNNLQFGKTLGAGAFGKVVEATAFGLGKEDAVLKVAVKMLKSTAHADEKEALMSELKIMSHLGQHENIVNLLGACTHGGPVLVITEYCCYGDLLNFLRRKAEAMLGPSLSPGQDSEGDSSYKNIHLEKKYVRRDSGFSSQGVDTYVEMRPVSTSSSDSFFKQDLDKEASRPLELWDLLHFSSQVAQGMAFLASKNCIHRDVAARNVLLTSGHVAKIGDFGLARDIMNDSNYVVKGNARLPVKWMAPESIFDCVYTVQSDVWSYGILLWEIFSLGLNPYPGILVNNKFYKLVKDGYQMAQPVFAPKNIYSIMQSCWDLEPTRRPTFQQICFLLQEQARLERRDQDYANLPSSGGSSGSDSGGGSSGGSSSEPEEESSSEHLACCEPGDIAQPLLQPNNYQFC

[2] = biological target: T1, colony stimulating factor 1 receptor (CSF1R), exogenously expressed in HEK293T cells (not stated (human or mouse cDNA cloned)); experiment: co-IP; HEK293T cells transfected for 24 h; lysis in 25 mM Tris-HCl pH 8.0, 150 mM NaCl, 1 mM EDTA, 0.5% Igepal CA-630; IP 1-2 h with FLAG M2 affinity gel or primary antibodies and protein G/A agarose; western blot; reciprocal for NEDD4 and CSF1R
[3] = biological target: NEDD4, exogenously expressed in HEK293T cells (not stated (human or mouse cDNA cloned)) (UniProt P46935); experiment: as above

binding [1]	binding [2]	binding [3]	Substance
binds	binds	–	NEDD4, exogenously expressed in HEK293T cells (from UniProt P46935 1-887) (enzyme)
–	–	binds	USP18, exogenously expressed in HEK293T cells (from UniProt Q9WTV6 1-368) (enzyme)
